Measurements taken from PubChem BioAssay.
Where “and” joins values, the source holds several entries; their conditions need not be identical. Equal values may be shown once. The list shows a part of the results. The main result of the screen is listed elsewhere. These columns were measured beside it and carry no call. For part of these data: Compounds called inactive in the main read-out are mostly missing here.

How the values were obtained:
PubChem AID 1586 = conditions: yeast two-hybrid polyglutamine protein interaction, reporter readout; measured here: averaged growth delta OD
[1] = selective SMN2 exon splicing luciferase activators – cell-based, SMN2/SMN1 luciferase reporters (AID 1598); conditions: SMN2 vs SMN1 luciferase splicing reporter cells, at 10 µM; SMN1 luciferase ratio: measured here: SMN1 luciferase reporter average; SMN2 luciferase ratio: measured here: SMN2 luciferase reporter average, stronger effect = higher value
[2] = rescue of PC12 cells from polyQ htt toxicity – LDH release (AID 1610); conditions: PC12 mutant huntingtin toxicity, final LDH at 4 uM, stronger effect = lower value

Row | Compound | signal change (36 h minus 0 h) (PubChem AID 1586) | SMN1 luciferase ratio [1] | SMN2 luciferase ratio [1] | normalised LDH release [2]
1 | CC(C)NCC(O)COc1cccc2ccccc12 (stereo unspecified) | 0.0393 | 0.75 | 0.8 | 0.929
2 | Cn1nnnc1SCC1=C(C(=O)O)N2C(=O)C(NC(=O)C(OC=O)c3ccccc3)C2SC1 (stereo unspecified) | 0.078 | 0.94 | 0.84 | 0.864
3 | C=C1c2c(Cl)ccc(O)c2C(O)=C2C(=O)[C@]3(O)C(O)=C(C(N)=O)C(=O)[C@@H](N(C)C)[C@@H]3[C@@H](O)[C@H]12 | 0.14 | 0.89 | 0.91 | 0.629
4 | CC(C)(C)NCC(O)c1cc(O)cc(O)c1 (stereo unspecified) | 0.056 | 0.9 | 0.93 | 0.591
5 | CC(N)C(O)c1cccc(O)c1 (stereo unspecified) | 0.144 | 0.85 | 0.97 | 0.768
6 | CC(=O)[C@H]1CCC2C3CCC4=CC(=O)CC[C@]4(C)C3CC[C@@]21C (stereo partly specified) | 0.0717 | 0.89 | 0.85 | 0.278
7 | CN1C(C(=O)Nc2ccccn2)=C(O)c2sccc2S1(=O)=O | 0.185 | 0.91 | 0.93 | 0.845
8 | CC(=O)[C@H]1CCC2C3CC=C4C[C@@H](O)CC[C@]4(C)C3CC[C@@]21C (stereo partly specified) | 0.0316 | 0.92 | 0.94 | 0.823
9 | C[C@@H]1O[C@@H](OC[C@H]2O[C@@H](Oc3c(-c4ccc(O)c(O)c4)oc4cc(O)cc(O)c4c3=O)[C@H](O)[C@@H](O)[C@@H]2O)[C@H](O)[C@H](O)[C@H]1O | 0.318 | 0.88 | 0.74 | 0.805
10 | CC1COc2c(N3CCN(C)CC3)c(F)cc3c(=O)c(C(=O)O)cn1c23 (stereo unspecified) | 0.0715 | 0.6 | 0.87 | 0.924
11 | CCC(=O)O[C@]1(C(=O)CCl)[C@@H](C)CC2C3CCC4=CC(=O)C=C[C@]4(C)[C@@]3(F)[C@@H](O)C[C@@]21C (stereo partly specified) | 0.0302 | 0.88 | 0.88 | 0.982
12 | CCOC(=O)C(Cc1ccc(O)cc1)NC(C)=O (stereo unspecified) | 0.189 | 0.95 | 1 | 1.03
13 | CN[C@@H]1[C@H](O)[C@H](NC)[C@H]2O[C@@]3(O)C(=O)C[C@@H](C)O[C@H]3O[C@@H]2[C@H]1O | 0.2 | 0.88 | 0.9 | 0.876
14 | O=C(O)CCC(=O)c1ccc(-c2ccccc2)cc1 | 0.0521 | 0.99 | 1.01 | 1.05
15 | O=c1cc(-c2ccccc2)oc2cc(O)c(O)cc12 | 0.144 | 2.03 | 2.27 | 0.947
16 | Cc1c(C(N)=O)cc([N+](=O)[O-])cc1[N+](=O)[O-] | 0.269 | 0.93 | 0.9 | 0.677
17 | NC(=O)c1ncn([C@@H]2O[C@H](CO)[C@@H](O)[C@H]2O)n1 | 0.291 | 1.04 | 0.97 | 0.75
18 | O=C1NC(=O)C(c2ccccc2)(c2ccccc2)N1 | 0.124 | 0.91 | 0.84 | 0.953
19 | Nc1cc(-c2ccncc2)c[nH]c1=O | 0.194 | 0.78 | 0.84 | 0.95
20 | COC(=O)Nc1nc2ccc(Sc3ccccc3)cc2[nH]1 | 0.19 | 0.93 | 1.09 | 1.11
21 | Nc1nc(=S)c2[nH]cnc2[nH]1 | 0.0752 | 0.64 | 0.67 | 0.887
22 | NS(=O)(=O)c1cc(C(=O)O)c(NCc2ccco2)cc1Cl | 0.162 | 0.91 | 0.99 | 1.04
23 | CC[C@H](C)C(=O)O[C@H]1C[C@@H](C)C=C2C=C[C@H](C)[C@H](CC[C@@H]3C[C@@H](O)CC(=O)O3)[C@H]21 | 0.133 | 1.04 | 1.02 | 0.965

Limited to SMN2 luciferase ratio [1], signal change (36 h minus 0 h) (PubChem AID 1586) and normalised LDH release [2], for some of the entries so far:

| Row | Compound | SMN2 luciferase ratio [1] | signal change (36 h minus 0 h) (PubChem AID 1586) | normalised LDH release [2] |
| --- | --- | --- | --- | --- |
| 19 | Nc1cc(-c2ccncc2)c[nH]c1=O | 0.84 | 0.194 | 0.95 |
| 20 | COC(=O)Nc1nc2ccc(Sc3ccccc3)cc2[nH]1 | 1.09 | 0.19 | 1.11 |
| 21 | Nc1nc(=S)c2[nH]cnc2[nH]1 | 0.67 | 0.0752 | 0.887 |

(listing goes on)

Row | Compound | signal change (36 h minus 0 h) (PubChem AID 1586) | SMN1 luciferase ratio [1] | SMN2 luciferase ratio [1] | normalised LDH release [2]
24 | C/C=C/CC(C)C(O)C1C(=O)NC(CC)C(=O)N(C)CC(=O)N(C)C(CC(C)C)C(=O)NC(C(C)C)C(=O)N(C)C(CC(C)C)C(=O)NC(C)C(=O)NC(C)C(=O)N(C)C(CC(C)C)C(=O)N(C)C(CC(C)C)C(=O)N(C)C(C(C)C)C(=O)N1C (stereo unspecified) | 0.313 | 0.85 | 0.82 | 0.84
25 | CCCCNC(=O)NS(=O)(=O)c1ccc(C)cc1 | 0.16 | 0.94 | 0.92 | 1.02
26 | C[C@]12CCC3c4ccc(OC(=O)CCC(=O)O)cc4CCC3C1CCC2=O (stereo partly specified) | 0.0735 | 0.93 | 0.83 | 0.972
27 | COc1ccc(Cl)cc1C(=O)NCCc1ccc(S(=O)(=O)NC(=O)NC2CCCCC2)cc1 | 0.152 | 0.91 | 0.94 | 0.826
28 | COC(=O)Nc1nc2ccc(C(=O)c3ccccc3)cc2[nH]1 | 0.336 | 1.1 | 1.04 | 0.805
29 | Cc1cccc(Nc2ccccc2C(=O)O)c1C | 0.193 | 0.92 | 0.92 | 0.894
30 | c1ccc(CC2=NCCN2)cc1 | 0.186 | 0.86 | 0.74 | 0.951
31 | COc1ccc2cc3[n+](cc2c1OC)CCc1cc2c(cc1-3)OCO2 | 0.0412 | 0.56 | 0.55 | 0.815
32 | CC1=NN(c2ccccc2)C(=O)C1 | 0.305 | 0.8 | 1.02 | 1.08
33 | CO[C@@]1(NC(=O)C(C(=O)O)c2ccc(O)cc2)C(=O)N2C(C(=O)O)=C(CSc3nnnn3C)CO[C@@H]21 (stereo partly specified) | 0.172 | 1.02 | 1.06 | 1.13
34 | CC(CN1c2ccccc2Sc2ccccc21)N(C)C (stereo unspecified) | 0.153 | 0.76 | 0.71 | 0.903
35 | CCC(=O)O[C@@H](O[P@](=O)(CCCCc1ccccc1)CC(=O)N1C[C@H](C2CCCCC2)C[C@H]1C(=O)O)C(C)C | 0.042 | 0.87 | 0.86 | 1.31
36 | O=C(N[C@H](CO)[C@H](O)c1ccc([N+](=O)[O-])cc1)C(Cl)Cl | 0.0961 | 0.9 | 0.73 | 1.22
37 | C[C@]12CCC3c4ccc(OS(=O)(=O)O)cc4CCC3C1CC[C@H]2O (stereo partly specified) | 0.225 | 0.92 | 1.03 | 0.938
38 | O=C1CN(/N=C/c2ccc([N+](=O)[O-])o2)C(=O)N1 | 0.0367 | 0.9 | 0.96 | 0.879
39 | Nc1ccc(S(=O)(=O)Nc2nccs2)cc1 | 0.047 | 0.95 | 0.87 | 0.732
40 | CC1(C)S[C@@H]2[C@H](NC(=O)Cc3ccccc3)C(=O)N2[C@H]1C(=O)O | 0.0876 | 0.97 | 0.85 | 0.768
41 | C[n+]1ccccc1/C=N/O | 0.141 | 0.89 | 0.96 | 0.795
42 | c1ccc(CN(CC2=NCCN2)c2ccccc2)cc1 | 0.156 | 0.85 | 0.8 | 1.04
43 | O=C(O)c1ccccc1O | 0.0406 | 0.99 | 1.09 | 0.734
44 | CCCCOc1ccc(OCCCN2CCOCC2)cc1 | 0.606 | 1.06 | 0.88 | 0.998
45 | CC(=O)OCC(=O)[C@@]12OC3(CCCC3)O[C@@H]1CC1C3CCC4=CC(=O)C=C[C@]4(C)[C@@]3(F)[C@@H](O)C[C@@]12C (stereo partly specified) | 0.0401 | 1.04 | 0.9 | 0.395
46 | CC[C@H]1OC(=O)[C@H](C)[C@@H](O[C@H]2C[C@@](C)(OC)[C@@H](O)[C@H](C)O2)[C@H](C)[C@@H](O[C@@H]2O[C@H](C)C[C@H](N(C)C)[C@H]2O)[C@](C)(O)C[C@@H](C)C(=O)[C@H](C)[C@@H](O)[C@]1(C)O | 0.211 and 0.0678 and 0.173 | 0.91 and 0.82 and 1.02 | 1.08 and 0.87 and 0.96 | 0.914 and 0.789 and 1.03

Row | Compound | signal change (36 h minus 0 h) (PubChem AID 1586) | SMN1 luciferase ratio [1] | SMN2 luciferase ratio [1] | normalised LDH release [2]
47 | CC(=O)Oc1ccccc1C(=O)O | 0.151 | 0.87 | 0.89 | 0.684
48 | O=C(Cc1cccs1)NC1C(=O)N2C(C(=O)[O-])=C(C[n+]3ccccc3)CSC12 (stereo unspecified) | 0.198 | 0.91 | 0.85 | 1
49 | CCCCC1C(=O)N(c2ccccc2)N(c2ccccc2)C1=O | 0.0795 | 0.94 | 0.92 | 0.72
50 | CC(C)(Oc1ccc(Cl)cc1)C(=O)O | 0.029 | 0.93 | 1.02 | 0.613
51 | Cc1cccc(CN2CCN(C(c3ccccc3)c3ccc(Cl)cc3)CC2)c1 (stereo unspecified) | 0.121 | 0.86 | 0.83 | 0.768
52 | OC[C@H]1O[C@@H](O[C@@H]2[C@@H](CO)O[C@](O)(CO)[C@H]2O)[C@H](O)[C@@H](O)[C@H]1O | 0.0355 | 0.77 | 0.84 | 0.857
53 | COc1ccc2cc([C@H](C)C(=O)O)ccc2c1 | 0.0922 | 0.96 | 0.87 | 1.03
54 | Cc1cc(C)nc(NS(=O)(=O)c2ccc(N)cc2)n1 | 0.149 | 0.86 | 0.93 | 0.88
55 | NS(=O)(=O)c1cc2c(cc1Cl)NCNS2(=O)=O | 0.129 | 0.85 | 0.93 | 1.06
56 | CN(C)C(=O)Oc1cccc([N+](C)(C)C)c1 | 0.181 and 0.0616 | 0.96 and 0.88 | 0.9 and 0.89 | 0.874 and 0.578
57 | NCC(O)CC(=O)O (stereo unspecified) | 0.06 | 0.88 | 0.79 | 0.991
58 | NS(=O)(=O)c1cc2c(cc1C(F)(F)F)NC(Cc1ccccc1)NS2(=O)=O (stereo unspecified) | 0.104 | 0.91 | 0.94 | 0.924
59 | CCCC(=O)O[C@]1(C(=O)CO)CCC2[C@@H]3CCC4=CC(=O)CC[C@]4(C)C3[C@@H](O)C[C@@]21C (stereo partly specified) | 0.439 | 0.81 | 0.84 | 0.6
60 | Cn1cnc([N+](=O)[O-])c1Sc1ncnc2nc[nH]c12 | 0.123 | 1 | 1.08 | 1.07
61 | NNc1nncc2ccccc12 | 0.0557 | 0.47 | 0.58 | 1.05
62 | CC(=O)Nc1ccccc1 | 0.0466 and 0.103 | 0.85 and 0.86 | 0.97 and 0.88 | 0.803 and 1.04
63 | CN1CCC(=C2c3ccccc3CC(=O)c3sccc32)CC1 | 0.0963 | 0.83 | 0.76 | 1.1
64 | NC(=O)c1ccc[n+]([C@@H]2O[C@H](COP(=O)([O-])OP(=O)(O)OC[C@H]3O[C@@H](n4cnc5c(N)ncnc54)[C@H](OP(=O)(O)O)[C@@H]3O)[C@@H](O)[C@H]2O)c1 | 0.154 | 0.9 | 0.92 | 0.76
65 | O=C(O)c1cc([N+](=O)[O-])ccc1NCCCc1ccccc1 | -0.0205 | 0.98 | 1.03 | 0.597
66 | CO[C@]12C[C@@H](COC(=O)c3cncc(Br)c3)CN(C)[C@@H]1Cc1cn(C)c3cccc2c13 | 0.17 | 0.83 | 0.82 | 0.867
67 | NNCCc1ccccc1 | 0.0741 | 0.86 | 0.93 | 1.08
68 | O=C1c2c(O)cccc2Cc2cccc(O)c21 | 0.124 | 0.93 | 0.93 | 0.847
69 | CCCCOc1ccc(CC(=O)NO)cc1 | 0.0563 | 1.14 | 1.04 | 0.893
